Experimental data as given in the supplement of paper PMC10849652.
The other results are listed elsewhere or left out.

Sequences of proteins named here, by UniProt entry; tags and fusion partners are left off. A change or cut given only in a name is not applied to a line headed by its entry.
UniProt Q9UKL0, whole entry, looked up: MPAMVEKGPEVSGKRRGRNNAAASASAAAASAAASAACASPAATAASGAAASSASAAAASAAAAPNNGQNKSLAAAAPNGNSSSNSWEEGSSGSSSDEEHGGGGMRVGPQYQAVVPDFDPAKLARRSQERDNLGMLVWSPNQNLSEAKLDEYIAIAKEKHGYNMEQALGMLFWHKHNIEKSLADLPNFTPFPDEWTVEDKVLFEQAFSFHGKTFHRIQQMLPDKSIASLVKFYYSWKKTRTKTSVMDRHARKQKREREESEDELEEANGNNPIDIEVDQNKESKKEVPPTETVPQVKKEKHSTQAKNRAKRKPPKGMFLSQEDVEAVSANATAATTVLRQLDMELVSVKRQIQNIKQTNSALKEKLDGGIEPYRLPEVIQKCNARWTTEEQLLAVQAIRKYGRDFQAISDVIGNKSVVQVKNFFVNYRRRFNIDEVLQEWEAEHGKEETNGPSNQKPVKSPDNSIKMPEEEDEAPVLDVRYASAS
UniProt P52756, whole entry, looked up: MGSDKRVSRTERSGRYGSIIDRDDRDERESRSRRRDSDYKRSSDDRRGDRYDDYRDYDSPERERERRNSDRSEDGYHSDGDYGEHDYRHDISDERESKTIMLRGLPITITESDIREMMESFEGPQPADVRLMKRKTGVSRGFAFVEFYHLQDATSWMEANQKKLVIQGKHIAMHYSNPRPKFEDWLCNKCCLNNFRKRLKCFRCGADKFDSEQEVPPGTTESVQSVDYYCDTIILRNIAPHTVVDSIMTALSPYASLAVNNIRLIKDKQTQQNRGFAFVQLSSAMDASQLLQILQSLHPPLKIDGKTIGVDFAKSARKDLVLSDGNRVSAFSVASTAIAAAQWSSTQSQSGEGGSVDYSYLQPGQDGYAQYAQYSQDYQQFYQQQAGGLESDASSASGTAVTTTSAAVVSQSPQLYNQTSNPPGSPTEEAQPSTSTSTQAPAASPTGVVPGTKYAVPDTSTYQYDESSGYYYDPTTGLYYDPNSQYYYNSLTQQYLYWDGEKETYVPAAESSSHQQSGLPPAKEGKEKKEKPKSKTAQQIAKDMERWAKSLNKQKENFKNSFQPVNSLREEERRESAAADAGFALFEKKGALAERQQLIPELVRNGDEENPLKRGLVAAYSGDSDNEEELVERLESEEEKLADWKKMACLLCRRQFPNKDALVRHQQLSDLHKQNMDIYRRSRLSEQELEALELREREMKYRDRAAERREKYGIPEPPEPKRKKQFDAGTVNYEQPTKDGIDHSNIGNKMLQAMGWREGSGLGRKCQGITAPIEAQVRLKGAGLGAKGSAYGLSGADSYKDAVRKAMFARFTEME
UniProt Q92546: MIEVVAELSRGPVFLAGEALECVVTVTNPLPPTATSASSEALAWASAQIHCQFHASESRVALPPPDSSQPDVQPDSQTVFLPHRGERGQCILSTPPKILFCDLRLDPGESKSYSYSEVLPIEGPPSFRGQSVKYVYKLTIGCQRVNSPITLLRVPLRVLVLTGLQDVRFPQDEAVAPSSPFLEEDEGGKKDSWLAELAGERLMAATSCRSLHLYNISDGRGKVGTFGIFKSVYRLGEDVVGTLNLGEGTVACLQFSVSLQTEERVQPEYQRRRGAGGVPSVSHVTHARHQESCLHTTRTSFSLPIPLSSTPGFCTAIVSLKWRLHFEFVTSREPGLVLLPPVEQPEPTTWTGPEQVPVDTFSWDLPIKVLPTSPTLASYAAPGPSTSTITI
UniProt O94762: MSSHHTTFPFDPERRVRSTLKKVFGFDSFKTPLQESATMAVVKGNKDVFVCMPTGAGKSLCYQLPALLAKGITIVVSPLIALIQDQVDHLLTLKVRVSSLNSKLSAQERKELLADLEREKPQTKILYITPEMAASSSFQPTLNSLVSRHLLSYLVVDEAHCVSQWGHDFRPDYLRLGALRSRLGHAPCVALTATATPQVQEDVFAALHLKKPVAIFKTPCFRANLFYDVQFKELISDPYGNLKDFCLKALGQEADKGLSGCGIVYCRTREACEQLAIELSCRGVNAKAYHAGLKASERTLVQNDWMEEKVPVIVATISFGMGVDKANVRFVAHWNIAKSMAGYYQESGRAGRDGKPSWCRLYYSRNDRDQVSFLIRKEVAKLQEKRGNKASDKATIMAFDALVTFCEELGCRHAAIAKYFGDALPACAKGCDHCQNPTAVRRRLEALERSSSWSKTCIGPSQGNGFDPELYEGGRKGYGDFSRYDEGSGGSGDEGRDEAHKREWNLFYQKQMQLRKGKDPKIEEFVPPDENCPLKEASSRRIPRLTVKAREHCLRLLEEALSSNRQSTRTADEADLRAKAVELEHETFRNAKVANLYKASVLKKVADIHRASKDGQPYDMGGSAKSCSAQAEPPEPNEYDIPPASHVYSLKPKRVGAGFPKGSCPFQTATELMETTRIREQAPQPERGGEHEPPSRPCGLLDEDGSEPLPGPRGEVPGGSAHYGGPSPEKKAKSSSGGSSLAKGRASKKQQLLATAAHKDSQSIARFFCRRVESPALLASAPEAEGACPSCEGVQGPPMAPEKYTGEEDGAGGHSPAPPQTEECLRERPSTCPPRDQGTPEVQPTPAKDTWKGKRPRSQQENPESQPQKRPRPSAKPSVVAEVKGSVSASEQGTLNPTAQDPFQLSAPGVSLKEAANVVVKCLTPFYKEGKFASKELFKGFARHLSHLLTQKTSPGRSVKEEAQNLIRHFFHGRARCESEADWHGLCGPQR
UniProt P18754: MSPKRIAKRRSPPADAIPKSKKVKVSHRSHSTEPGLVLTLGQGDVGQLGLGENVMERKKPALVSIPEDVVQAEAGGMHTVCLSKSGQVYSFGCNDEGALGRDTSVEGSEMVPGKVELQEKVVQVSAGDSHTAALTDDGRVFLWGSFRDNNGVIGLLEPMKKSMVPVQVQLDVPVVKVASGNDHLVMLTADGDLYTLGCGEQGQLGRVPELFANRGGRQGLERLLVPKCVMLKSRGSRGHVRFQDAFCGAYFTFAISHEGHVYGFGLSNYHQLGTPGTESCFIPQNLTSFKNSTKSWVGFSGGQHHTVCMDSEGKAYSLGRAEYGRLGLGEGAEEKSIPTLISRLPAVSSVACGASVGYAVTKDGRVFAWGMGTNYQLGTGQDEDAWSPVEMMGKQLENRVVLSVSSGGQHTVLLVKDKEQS
UniProt Q14644: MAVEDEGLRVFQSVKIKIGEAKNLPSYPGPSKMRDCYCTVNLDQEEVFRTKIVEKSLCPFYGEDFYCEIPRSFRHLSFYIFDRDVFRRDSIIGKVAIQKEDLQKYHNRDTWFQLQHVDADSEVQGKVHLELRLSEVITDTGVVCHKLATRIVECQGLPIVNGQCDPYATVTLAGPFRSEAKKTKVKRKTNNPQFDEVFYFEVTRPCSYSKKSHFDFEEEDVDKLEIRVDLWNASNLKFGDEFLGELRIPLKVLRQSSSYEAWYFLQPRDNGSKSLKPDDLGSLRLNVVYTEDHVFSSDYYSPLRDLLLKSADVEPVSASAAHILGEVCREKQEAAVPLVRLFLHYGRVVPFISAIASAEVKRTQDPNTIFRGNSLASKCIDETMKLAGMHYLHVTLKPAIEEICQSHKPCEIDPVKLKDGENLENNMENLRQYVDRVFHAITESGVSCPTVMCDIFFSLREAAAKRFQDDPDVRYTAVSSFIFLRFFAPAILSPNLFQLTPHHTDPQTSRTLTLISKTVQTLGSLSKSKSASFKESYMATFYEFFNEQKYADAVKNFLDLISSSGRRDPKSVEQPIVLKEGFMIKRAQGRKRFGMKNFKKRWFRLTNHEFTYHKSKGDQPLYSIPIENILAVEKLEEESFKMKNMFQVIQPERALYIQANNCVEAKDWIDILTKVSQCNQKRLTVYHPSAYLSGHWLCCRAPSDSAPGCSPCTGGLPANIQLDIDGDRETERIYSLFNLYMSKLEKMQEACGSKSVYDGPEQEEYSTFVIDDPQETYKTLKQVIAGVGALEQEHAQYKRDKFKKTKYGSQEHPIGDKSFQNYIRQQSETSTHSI
UniProt P38159: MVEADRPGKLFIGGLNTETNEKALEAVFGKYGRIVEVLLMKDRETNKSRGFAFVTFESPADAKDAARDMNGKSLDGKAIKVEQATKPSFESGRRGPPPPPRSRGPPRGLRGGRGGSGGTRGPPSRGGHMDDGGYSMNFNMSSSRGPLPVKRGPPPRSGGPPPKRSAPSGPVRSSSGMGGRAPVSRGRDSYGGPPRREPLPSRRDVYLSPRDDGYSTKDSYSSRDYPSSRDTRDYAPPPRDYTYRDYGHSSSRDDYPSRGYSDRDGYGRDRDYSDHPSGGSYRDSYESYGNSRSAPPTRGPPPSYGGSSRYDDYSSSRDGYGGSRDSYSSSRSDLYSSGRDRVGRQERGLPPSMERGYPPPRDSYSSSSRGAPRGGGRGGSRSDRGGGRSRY
UniProt Q8IZV5: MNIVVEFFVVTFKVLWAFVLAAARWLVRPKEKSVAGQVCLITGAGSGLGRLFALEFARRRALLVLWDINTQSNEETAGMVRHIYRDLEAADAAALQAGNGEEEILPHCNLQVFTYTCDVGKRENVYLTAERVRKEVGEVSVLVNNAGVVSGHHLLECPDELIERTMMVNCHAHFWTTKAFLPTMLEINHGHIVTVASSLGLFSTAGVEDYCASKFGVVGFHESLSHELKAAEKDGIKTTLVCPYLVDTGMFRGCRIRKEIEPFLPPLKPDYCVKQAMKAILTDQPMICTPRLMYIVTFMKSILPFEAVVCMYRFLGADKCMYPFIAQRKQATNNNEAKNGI
UniProt Q8N5W9: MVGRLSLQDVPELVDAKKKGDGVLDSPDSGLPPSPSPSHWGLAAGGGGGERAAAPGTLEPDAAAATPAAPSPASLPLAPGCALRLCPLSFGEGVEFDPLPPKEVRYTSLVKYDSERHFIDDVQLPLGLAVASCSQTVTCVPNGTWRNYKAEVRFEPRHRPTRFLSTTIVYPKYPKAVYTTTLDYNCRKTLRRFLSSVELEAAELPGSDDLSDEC
UniProt Q8TEU7: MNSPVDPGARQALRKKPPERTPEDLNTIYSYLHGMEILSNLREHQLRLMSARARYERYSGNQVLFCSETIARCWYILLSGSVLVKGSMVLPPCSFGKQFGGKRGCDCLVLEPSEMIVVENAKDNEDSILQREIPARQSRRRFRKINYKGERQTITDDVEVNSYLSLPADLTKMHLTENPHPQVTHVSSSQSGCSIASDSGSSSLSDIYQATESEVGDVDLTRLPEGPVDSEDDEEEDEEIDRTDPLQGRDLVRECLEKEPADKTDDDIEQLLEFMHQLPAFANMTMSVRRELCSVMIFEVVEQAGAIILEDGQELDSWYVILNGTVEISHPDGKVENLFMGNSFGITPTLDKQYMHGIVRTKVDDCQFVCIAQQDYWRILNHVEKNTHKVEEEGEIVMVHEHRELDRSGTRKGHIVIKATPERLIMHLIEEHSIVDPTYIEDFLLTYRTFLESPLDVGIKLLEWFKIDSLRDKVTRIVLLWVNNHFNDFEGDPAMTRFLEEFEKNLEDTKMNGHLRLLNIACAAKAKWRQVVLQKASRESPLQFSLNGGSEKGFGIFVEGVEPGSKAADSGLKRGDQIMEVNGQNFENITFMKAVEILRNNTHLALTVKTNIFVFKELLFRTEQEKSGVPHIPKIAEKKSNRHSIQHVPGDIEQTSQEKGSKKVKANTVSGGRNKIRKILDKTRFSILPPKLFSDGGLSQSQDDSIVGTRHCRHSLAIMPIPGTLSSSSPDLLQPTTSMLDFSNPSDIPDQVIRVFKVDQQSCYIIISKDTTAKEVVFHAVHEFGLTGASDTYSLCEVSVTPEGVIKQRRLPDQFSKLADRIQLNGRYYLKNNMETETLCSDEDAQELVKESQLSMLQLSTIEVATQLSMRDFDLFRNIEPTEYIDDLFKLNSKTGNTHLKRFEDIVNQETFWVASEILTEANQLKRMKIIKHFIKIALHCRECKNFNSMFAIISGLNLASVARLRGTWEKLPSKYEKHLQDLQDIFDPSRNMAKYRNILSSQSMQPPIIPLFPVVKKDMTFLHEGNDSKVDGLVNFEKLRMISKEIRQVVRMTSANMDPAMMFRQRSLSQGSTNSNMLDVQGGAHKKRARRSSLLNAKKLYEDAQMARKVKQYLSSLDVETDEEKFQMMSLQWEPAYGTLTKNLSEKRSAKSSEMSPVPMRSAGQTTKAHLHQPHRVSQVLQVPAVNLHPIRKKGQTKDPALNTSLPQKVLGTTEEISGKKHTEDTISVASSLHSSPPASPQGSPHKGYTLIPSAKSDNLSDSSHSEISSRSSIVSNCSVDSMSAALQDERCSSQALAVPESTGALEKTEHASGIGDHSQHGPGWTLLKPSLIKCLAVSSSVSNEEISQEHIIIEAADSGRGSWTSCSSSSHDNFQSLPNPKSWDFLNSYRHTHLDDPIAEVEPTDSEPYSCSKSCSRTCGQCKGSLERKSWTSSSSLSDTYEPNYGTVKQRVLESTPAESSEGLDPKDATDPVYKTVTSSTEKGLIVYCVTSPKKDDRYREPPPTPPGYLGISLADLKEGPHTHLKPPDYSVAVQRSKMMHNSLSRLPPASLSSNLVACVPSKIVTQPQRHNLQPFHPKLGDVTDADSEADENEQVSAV

Assays:
Test in all cases: log2 fold change, soluble protein after heating vs DMSO (PISA); higher = thermal stabilisation; K562 lysate, 10 uM; active = over 0.2 and 3.5 SD of the protein, either way, in both replicates (recomputed)
[1] = compound: CCCS(=O)(=O)Nc1ccc(F)c(C(=O)c2c[nH]c3ncc(-c4ccc(Cl)cc4)cc23)c1F [vemurafenib]
How it was run: (§1)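 Quantification was by TMTpro 16plex LC-MS/MS with equalised channel sums, applied to the supernatant after 21,000xg for 90 min. Samples were crude K562 extract at 1 mg/mL protein in PBS pH 7.4 with 1 mM MgCl2, treated with 10 μM compound for 30 min, heated for 3 min across 48°C-58°C, pooled and brought to 0.5% NP-40 at 4°C. Values are log-two fold changes in thermal stability relative to solvent controls, from duplicates.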

[2] = compound: CCCS(=O)(=O)Nc1ccc(F)c(C(=O)c2c[nH]c3ncc(Cl)cc23)c1F
How it was run: as §1

[3] = compound: CCN(CCCOc1ccc2c(Nc3cc(CC(=O)Nc4cccc(F)c4)[nH]n3)ncnc2c1)CCOP(=O)(O)O [barasertib]
How it was run: as §1

[4] = compound: CC[C@@H]1C(=O)N(C)c2cnc(Nc3ccc(C(=O)NC4CCN(C)CC4)cc3OC)nc2N1C1CCCC1
How it was run: as §1

[5] = compound: CC[C@@H]1C(=O)N(C)c2cnc(Nc3ccc(C(=O)N[C@H]4CC[C@H](N5CCN(CC6CC6)CC5)CC4)cc3OC)nc2N1C(C)C [volasertib]
How it was run: as §1

[6] = compound: CCn1c(C(=O)N(C2CC2)C2CC2)cc2c3c(ncn3C)c(Nc3cc(C)n(C)n3)nc21
How it was run: as §1

[7] = compound: CCn1cc(-c2ccnc3[nH]c(-c4cccc(CN(C)C)c4)cc23)c(-c2ccc(NC(=O)N(C)C)cc2)n1
How it was run: as §1

[8] = compound: CN1CCC(CNc2ccc3ncc(-c4cccc(OC(F)(F)F)c4)n3n2)CC1
How it was run: as §1

[9] = compound: CN1CCN(CCOc2cc(OC3CCOCC3)c3c(Nc4c(Cl)ccc5c4OCO5)ncnc3c2)CC1 [saracatinib]
How it was run: as §1

[10] = compound: CN1CCN(c2nc(C3=C(c4c[nH]c5ccccc45)C(=O)NC3=O)c3ccccc3n2)CC1 [sotrastaurin]
How it was run: as §1

Measured: log2 fold change

RCOR1 (UniProt Q9UKL0)
inactive: [1] 0.028 | [2] -0.03 | [3] 0.108 | [4] -0.008 | [5] 0.003 | [6] -0.001 | [7] -0.071 | [8] 0.017 | [9] 0.001 | [10] 0.004

RFC1 (UniProt P35251)
inactive: [1] -0.012 | [2] -0.019 | [3] 0.007 | [4] 0.059 | [5] 0.018 | [6] 0.022 | [7] 0.107 | [8] -0.058 | [9] -0.054 | [10] -0.011

RCE1 (UniProt Q9Y256)
inactive: [1] -0.097 | [2] -0.046 | [3] 0.017 | [4] 0.001 | [5] -0.123 | [6] -0.067 | [7] -0.182 | [8] 0.045 | [9] -0.038 | [10] 0.113

RBM5 (UniProt P52756)
inactive: [1] -0.021 | [2] -0.018 | [3] 0.087 | [4] 0.013 | [5] -0.277 | [6] 0.064 | [7] 0.048 | [8] -0.012 | [9] -0.039 | [10] -0.03

RGP1 (UniProt Q92546)
inactive: [1] -0.063 | [2] 0.095 | [3] 0.066 | [4] -0.155 | [5] -0.061 | [6] -0.064 | [7] 0.082 | [8] -0.089 | [9] 0.059 | [10] -0.002

RECQL5 (UniProt O94762)
inactive: [1] -0.028 | [2] -0.045 | [3] 0.02 | [4] 0.069 | [5] -0.187 | [6] -0.01 | [7] 0.131 | [8] -0.222 | [9] 0.018 | [10] 0.003

RCC1 isoform 2 (UniProt P18754)
inactive: [1] 0.049 | [2] 0.018 | [3] -0.008 | [4] -0.114 | [5] -0.066 | [6] 0.027 | [7] -0.105 | [8] -0.046 | [9] -0.021 | [10] 0.001

RFC5 (UniProt P40937)
inactive: [1] 0.034 | [2] -0.003 | [3] -0.017 | [4] -0.039 | [5] -0.079 | [6] 0.022 | [7] 0.137 | [8] 0.005 | [9] 0.008 | [10] 0.043

RASA3 (UniProt Q14644)
inactive: [1] -0.008 | [2] 0.009 | [3] 0.107 | [4] -0.1 | [5] -0.082 | [6] -0.058 | [7] 0.105 | [8] 0.298 | [9] -0.003 | [10] 0.048

Two entries drawn at random from those above, as already listed:
RFC5 (UniProt P40937)
inactive: [1] 0.034 | [2] -0.003 | [3] -0.017 | [4] -0.039 | [5] -0.079 | [6] 0.022 | [7] 0.137 | [8] 0.005 | [9] 0.008 | [10] 0.043

RASA3 (UniProt Q14644)
inactive: [1] -0.008 | [2] 0.009 | [3] 0.107 | [4] -0.1 | [5] -0.082 | [6] -0.058 | [7] 0.105 | [8] 0.298 | [9] -0.003 | [10] 0.048

(list continues)

RBMX (UniProt P38159)
inactive: [1] -0.058 | [2] 0.013 | [3] -0.026 | [4] -0.012 | [5] -0.02 | [6] 0.067 | [7] -0.007 | [8] 0.009 | [9] -0.031 | [10] -0.014

RBSN (UniProt Q9H1K0)
inactive: [1] 0.051 | [2] 0.01 | [3] 0.023 | [4] 0.035 | [5] -0.087 | [6] 0.006 | [7] -0.075 | [8] 0.038 | [9] 0.023 | [10] -0.019

RDH10 (UniProt Q8IZV5)
inactive: [1] 0.054 | [2] 0.032 | [3] 0.027 | [4] -0.011 | [5] 0.035 | [6] -0.072 | [7] -0.067 | [8] 0.062 | [9] -0.035 | [10] -0.006

RFLNB (UniProt Q8N5W9)
inactive: [1] 0 | [2] 0.081 | [3] -0.066 | [4] -0.02 | [5] -0.03 | [6] -0.071 | [7] 0.04 | [8] 0.064 | [9] -0.083 | [10] 0.062

RAPGEF6 isoform 4 (UniProt Q8TEU7)
inactive: [1] 0.009 | [2] 0.026 | [3] 0.027 | [4] -0.024 | [5] 0.004 | [6] 0.004 | [7] 0.006 | [8] -0.019 | [9] 0.005 | [10] 0.01
